Source: PubChem BioAssay AID1508587 (Peter MacCallum Cancer Centre, 2020)
Here is an unselected part of about 1,600 reagents tested. Over the whole deposit, 623 (39%) are marked active. 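Calls are for each duplex; lactate ratios contain extreme outliers.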 Reagents against one gene are numbered here.

Test: 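Knockdowns that add to vemurafenib's cut in melanoma glycolysis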 (follow-up of hits)
Cells: human WM266.4 melanoma cells with a BRAF V600 mutation
Reagent: single siRNA against human genes, 25 nM
Timing: 96 h
Challenge: vemurafenib 300 nM (about IC25), given 48 h after transfection for 48 h
Measured: 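Medium lactate read by absorbance over DAPI-counted nuclei; ratio with versus without vemurafenib, set against non-targeting siRNA, averaged over 2 replicates; cell number also recorded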
Scale: lactate per cell, drug vs no drug: higher = less drug-induced drop in lactate per cell; lactate per cell with vemurafenib: higher = more lactate per cell under drug; lactate per cell without drug: higher = more lactate per cell without drug; cell growth with vemurafenib and cell growth without drug: higher = more cell growth over 48 h
Rule for the call: 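a duplex is active when its lactate-per-cell ratio with versus without drug falls under 0.55, i.e. 2 SD below non-targeting; a gene is confirmed if 2 or more of 4 duplexes pass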

Gene,reagent,"lactate per cell, drug vs no drug",lactate per cell with vemurafenib,lactate per cell without drug,cell growth with vemurafenib,cell growth without drug,call
PRM3 (protamine 3),1,0.26,0.36,0.86,0.5,0.47,active
PRM3 (protamine 3),2,0.32,0.78,1.54,-0.01,-0.06,active
PRM3 (protamine 3),3,0.38,0.72,1.21,0.43,0.37,active
PRM3 (protamine 3),4,0.33,0.98,1.86,0.34,0.07,active
CHI3L1 (chitinase 3 like 1),1,0.84,1.69,1.34,0.34,0.58,inactive
CHI3L1 (chitinase 3 like 1),2,0.46,1.28,1.8,0.45,0.31,active
CHI3L1 (chitinase 3 like 1),3,0.62,2,2.12,0.36,0.24,inactive
CHI3L1 (chitinase 3 like 1),4,0.32,0.34,0.7,0.25,0.59,active
ARIH1 (ariadne RBR E3 ubiquitin protein ligase 1),1,0.55,1.08,1.15,0.67,0.7,inactive
ARIH1 (ariadne RBR E3 ubiquitin protein ligase 1),2,0.44,1.11,1.48,0.47,0.17,active
ARIH1 (ariadne RBR E3 ubiquitin protein ligase 1),3,0.6,1.04,1.01,0.96,1.35,inactive
ARIH1 (ariadne RBR E3 ubiquitin protein ligase 1),4,0.46,1.4,1.79,0.59,0.31,active
SMG6 (SMG6 nonsense mediated mRNA decay factor),1,0.62,2.12,2.37,0.1,-0.04,inactive
SMG6 (SMG6 nonsense mediated mRNA decay factor),2,0.54,1.21,1.53,0.4,0.32,active
SMG6 (SMG6 nonsense mediated mRNA decay factor),3,0.6,0.77,0.92,0.71,0.84,inactive
SMG6 (SMG6 nonsense mediated mRNA decay factor),4,0.71,3.43,3.31,0.13,0.02,inactive
"AGAP4 (ArfGAP with GTPase domain, ankyrin repeat and PH domain 4)",1,0.36,0.54,1,0.08,0.18,active
"AGAP4 (ArfGAP with GTPase domain, ankyrin repeat and PH domain 4)",2,0.71,3.08,2.87,0.25,0.2,inactive
"AGAP4 (ArfGAP with GTPase domain, ankyrin repeat and PH domain 4)",3,0.72,1.14,1.04,0.81,0.75,inactive
"AGAP4 (ArfGAP with GTPase domain, ankyrin repeat and PH domain 4)",4,0.57,1.58,1.82,0.75,0.41,inactive
ANKRD50 (ankyrin repeat domain 50),1,0.59,1.46,1.53,0.18,0.23,inactive
ANKRD50 (ankyrin repeat domain 50),2,0.48,0.76,0.98,0.34,0.42,active
ANKRD50 (ankyrin repeat domain 50),3,0.46,0.77,1.04,-0.13,0.06,active
ANKRD50 (ankyrin repeat domain 50),4,0.47,0.87,1.14,0.23,0.26,active
PCNP (PEST proteolytic signal containing nuclear protein),1,0.59,1.12,1.25,0.87,0.67,inactive
PCNP (PEST proteolytic signal containing nuclear protein),2,0.48,0.74,1,0.16,0.18,active
PCNP (PEST proteolytic signal containing nuclear protein),3,0.39,0.95,1.62,0.67,0.5,active
PCNP (PEST proteolytic signal containing nuclear protein),4,0.5,0.94,1.21,0.43,0.45,active
FAM204A (family with sequence similarity 204 member A),1,0.44,1.44,2.34,-0.05,0.02,active
FAM204A (family with sequence similarity 204 member A),2,0.59,1.44,1.77,0.57,0.33,inactive
FAM204A (family with sequence similarity 204 member A),3,0.66,1.36,1.5,0.13,0.18,inactive
FAM204A (family with sequence similarity 204 member A),4,0.68,1.42,1.52,0.25,0.25,inactive

Continued, starting with the last 3 of the part before.
Gene,reagent,"lactate per cell, drug vs no drug",lactate per cell with vemurafenib,lactate per cell without drug,cell growth with vemurafenib,cell growth without drug,call
FAM204A (family with sequence similarity 204 member A),2,0.59,1.44,1.77,0.57,0.33,inactive
FAM204A (family with sequence similarity 204 member A),3,0.66,1.36,1.5,0.13,0.18,inactive
FAM204A (family with sequence similarity 204 member A),4,0.68,1.42,1.52,0.25,0.25,inactive
PLXNA2 (plexin A2),1,0.5,0.47,0.62,0.02,0.37,active
PLXNA2 (plexin A2),2,0.43,4.85,7.25,-0.07,-0.14,active
PLXNA2 (plexin A2),3,0.64,0.79,0.82,1.49,1.64,inactive
PLXNA2 (plexin A2),4,0.47,0.94,1.31,0.48,0.34,active
"ITPR2 (inositol 1,4,5-trisphosphate receptor type 2)",1,0.51,0.77,0.9,0.52,0.62,active
"ITPR2 (inositol 1,4,5-trisphosphate receptor type 2)",2,0.49,1.14,1.36,0.29,0.25,active
"ITPR2 (inositol 1,4,5-trisphosphate receptor type 2)",3,0.72,1.68,1.48,0.22,0.45,inactive
"ITPR2 (inositol 1,4,5-trisphosphate receptor type 2)",4,0.52,1.09,1.24,0.6,0.54,active
FAM156A (family with sequence similarity 156 member A),1,0.6,4.3,4.96,0.03,0.01,inactive
FAM156A (family with sequence similarity 156 member A),2,1.18,2.7,1.55,-0.04,0.03,inactive
FAM156A (family with sequence similarity 156 member A),3,0.64,1.15,1.18,0.63,0.49,inactive
FAM156A (family with sequence similarity 156 member A),4,0.38,0.68,1.17,0.2,0.25,active
ODR4 (odr-4 GPCR localization factor homolog),1,0.57,1.17,1.25,0.22,0.21,inactive
ODR4 (odr-4 GPCR localization factor homolog),2,0.61,1.17,1.16,0.05,0.17,inactive
ODR4 (odr-4 GPCR localization factor homolog),3,0.48,1.19,1.54,0.08,0.12,active
ODR4 (odr-4 GPCR localization factor homolog),4,0.41,0.9,1.35,0.8,0.5,active
"PRG3 (proteoglycan 3, pro eosinophil major basic protein 2)",1,0.57,0.9,1.05,0.75,0.79,inactive
"PRG3 (proteoglycan 3, pro eosinophil major basic protein 2)",2,0.34,0.74,1.42,0,0.09,active
"PRG3 (proteoglycan 3, pro eosinophil major basic protein 2)",3,0.74,1.24,1.12,0.96,0.95,inactive
"PRG3 (proteoglycan 3, pro eosinophil major basic protein 2)",4,0.92,1.55,1.1,0.94,0.95,inactive
